Source: PMC6901946, “Intranasal MMI-0100 Attenuates Aβ1−42- and LPS-Induced Neuroinflammation and Memory Impairments via the MK2 Signaling Pathway” (Frontiers in Immunology, 2019)

How the values were obtained:
Kunming mice [1] = experiment: Novel object recognition (NOR) task; format: in vivo, mouse; details: mean ± SEM
Procedure: (§1) MMI-0100 or vehicle was infused into the brain by using a 32-gauge stainless steel syringe needle placed in and projecting 0.5 mm below the tip of the cannula for 2 min. This needle was connected via a PE tube to a 5-μl Hamilton syringe mounted to a Microdrive pump (KD Scientific). To allow the drug to diffuse, the infusion syringe remained in place for 1 min. For the lateral ventricle, injection volume is 2 μl, and for the bilateral hippocampus CA1, injection volume is 0.5 μl/side. After drug administration, each mouse was subjected to behavioral testing immediately. In addition, the selection of the doses was based on the previous reports and our preliminary observations ([24]).
(§2) The behavior experiments were carried out 15 min after i.c.v. injection of MMI-0100, or 2 h after intranasal infusion of MMI-0100. The cytokines were measured 15 min after i.c.v. injection of MMI-0100.
The procedures for the novel object recognition (NOR) and object location recognition (OLR) tasks were described in our previous report ([23], [30]). The videos for NOR and OLR tasks were shown in Supplementary Material. Briefly, the procedure of NOR and OLR tasks consisted of two sessions: the training phase and the test phase, and the time elapsed between the training and test phases is 24 h. Each mouse was tested in its home cage in a sound-attenuated room with dim lighting. Each mouse was handled for 3 min per day for three consecutive days prior to training. In our experiments, all objects were made of plastic or glass and were similar in sizes (4–5 cm high) but different in color and shape. There were several copies of each object used interchangeably. The objects were cleaned thoroughly between trials to avoid olfactory cues. Exploration was defined as sniffing or touching the object with the nose or forepaws. Resting against or moving around the object was not considered exploratory behavior. The discrimination index (DI) in the memory retention phase was calculated as the percentage of the time a mouse explored the new object or location over the total time the mouse explored the two objects or locations. […] We found no significant difference between treatments in the duration of exploration of the objects during the training phase, as well as in the duration and the total exploration time (TET) during the memory retention phase (Table 1).
In the training phase, two identical objects were placed on opposite sides of the home cage. The training trial was ended when the mouse had explored the two identical objects for 10 s within 5 min. […] In the test phase, a novel object, and a familiar object from the training trial were placed in the same positions as in the training phase, and the test phase lasted for 5 min. The test phase was ended when the mouse had explored the two objects for a total of 25 s, or after 5 min had passed, the test phase was terminated.

Kunming mice [2] = experiment: Object location recognition (OLR) task; format: in vivo, mouse; details: mean ± SEM
Procedure: as §1, §2
The procedures for the novel object recognition (NOR) and object location recognition (OLR) tasks were described in our previous report ([23], [30]). The videos for NOR and OLR tasks were shown in Supplementary Material. […] The discrimination index (DI) in the memory retention phase was calculated as the percentage of the time a mouse explored the new object or location over the total time the mouse explored the two objects or locations. […]

[3] = Figure 2A, Aβ1−42 800 pmol i.c.v., MMI-0100 5 nmol i.c.v. or vehicle
[4] = Figure 2B, Aβ1−42 200 pmol iCA1, MMI-0100 1 nmol iCA1 or vehicle

Aβ1−42: Aβ1−42 peptide purchased from Hangzhou Chinese Peptide Biochemical Company, oligomer used to induce AD model
Duration of test phase (Kunming mice [1]; [3]): 300 ± 0 300 ± 0 | Duration of training phase (Kunming mice [1]; [3]): 184.5 ± 10.2 | TET in test phase (Kunming mice [1]; [3]): 17.2 ± 1.5 | Duration of test phase (Kunming mice [1]; [4]): 300 ± 0 | Duration of training phase (Kunming mice [1]; [4]): 195.1 ± 16.7 | TET in test phase (Kunming mice [1]; [4]): 20.6 ± 1.4 | TET in test phase (Kunming mice [2]; Figure 3A, Aβ1−42 800 pmol i.c.v., MMI-0100 5 nmol i.c.v. or vehicle): 16.9 ± 1.4 | TET in test phase (Kunming mice [2]; Figure 3B, Aβ1−42 200 pmol iCA1, MMI-0100 1 nmol iCA1 or vehicle): 15.2 ± 0.9
